Part of at least one peptide drawing is inferred or uncertain, most often the ends. *1 amine or outer side, *2 acyl side, *3 side chain or, on linkers, in order; H or OH if unused. Where a SMILES comes first, the peptide text is derived from it. Bridges are numbered along the chain shown (N, C = ends). [ ]: non-standard residue; d: D form. X1 = O=C(CC1(S[*:2])CCCCC1)[*:1]
Test system: hydropenic rat
Assay: Hydropenic rat screen (anti-ADH activity in vivo)
Settings: estimated dose delivered ip which reduces Uosm from hydropenic levels to 300 mOsmoles/kg H2O; male rats
Procedure: Antagonistic activity toward the natural antidiuretic hormone (anti-ADH activity) is determined, in vitro, in the medullary tissue of hog or human kidneys and, in vivo, in the hydropenic rat. The in vitro assay procedures for vasopressin stimulated adenylate cyclase activation or vasopression binding activity are described by F. Stassen et al., J. Pharmacology and Experimental Therapeutics, 223, 50-54 (1982).
The assay for anti-ADH activity is the hydropenic rat protocol is described below:
Food and water are removed from male rats approximately 18 hours prior to testing. Animals are housed 4 per metabolism cage. At 0 hour, the test compound is administered intraperitoneally to the test group and an equivalent volume of vehicle is administered to both control groups (fasted and non-fasted). Urine volume and osmolality are measured every hour for 4 hours. Test values are recorded as ml of urine excreted (cumulative), mEq/rat electrolyte excreted, mg/rat urea excreted, and osmolality in milli-Osmoles/kg H2 O. A tolerance test is used to determine significance. ED300 is defined as the dose of compound (μg/kg) required to lower urine osmolality to 300 m-Osmoles/kg.

CCOc1ccc(C[C@H]2NC(=O)CC3(CCCCC3)SSC[C@@H](C(=O)N[C@@H](CCCNC(=N)N)C(=O)NCC(N)=O)NC(=O)[C@H](CC(N)=O)NC(=O)[C@H](C(C)C)NC(=O)[C@H](Cc3ccccc3)NC2=O)cc1 [A] ([dY](Et)FVNCRG-NH2; linker N-5 via X1)
In Vivo (Rat) ED300: 0.0227 mg/kg

Source: patent US4481193A, “Des-proline vasopressin antagonists” (SmithKline Beckman Corporation, priority 1984, dated 1984)
